Values of other authors in patent publication US10213438B2, “Alkaloid compounds for treating depression, substance addictions, and indications associated with chronic inflammation” (MyMD Pharmaceuticals, Inc., priority 2014, dated 2019).
At least one compound was matched to its structure with a doubt left.

System: mice
Settings: cited from earlier work

NN [hydrazine]
effect on dopamine levels (MPTP): no significant effect | decrease in dopamine metabolite levels induced by MPTP: prevented the decrease
